From article PMC9361823
Where a chain is given by its changes, count along the chain named. Names and notes keep the numbering of the source. No constants are given. Whether binding was seen depends on the method and setting. Some results given as binding are weak or reduced against the parent protein; the word gives no strength.

What was measured:
Experiment in all cases: SEC; α (His6) and untagged β co-expressed in E. coli and co-purified by metal chelation and gel filtration (Superdex200; 20 mM Tris-HCl, 0.2 M NaCl, 10% glycerol, pH 7.4); 150- to 200-kDa complex in solution (Fig. S1; the text does not say how the size was estimated); both purified
[1] = target: α-subunit of CumDO-O (CumA1) W159A (Pseudomonas fluorescens IP01) (UniProt Q51743)
[2] = target: α-subunit of CumDO-O (CumA1) D158A (Pseudomonas fluorescens IP01) (UniProt Q51743)
[3] = target: α-subunit of CumDO-O (CumA1) K258A (Pseudomonas fluorescens IP01) (UniProt Q51743)
[4] = target: α-subunit of CumDO-O (CumA1) K33A (Pseudomonas fluorescens IP01) (UniProt Q51743)
[5] = target: α-subunit of CumDO-O (CumA1) R39A (Pseudomonas fluorescens IP01) (UniProt Q51743)
[6] = target: α-subunit of CumDO-O (CumA1) L241A (Pseudomonas fluorescens IP01) (UniProt Q51743)
[7] = target: α-subunit of CumDO-O (CumA1) K141A (Pseudomonas fluorescens IP01) (UniProt Q51743)
[8] = target: α-subunit of CumDO-O (CumA1) L162A (Pseudomonas fluorescens IP01) (UniProt Q51743)
[9] = target: α-subunit of CumDO-O (CumA1) E180A (Pseudomonas fluorescens IP01) (UniProt Q51743)
[10] = target: α-subunit of CumDO-O (CumA1) D253A (Pseudomonas fluorescens IP01) (UniProt Q51743)
[11] = target: α-subunit of CumDO-O (CumA1) L35A (Pseudomonas fluorescens IP01) (UniProt Q51743)
[12] = target: α-subunit of CumDO-O (CumA1) K117A (Pseudomonas fluorescens IP01) (UniProt Q51743)
[13] = target: α-subunit of CumDO-O (CumA1) R407A (Pseudomonas fluorescens IP01) (UniProt Q51743)
[14] = target: α-subunit of CumDO-O (CumA1) (Pseudomonas fluorescens IP01) (UniProt Q51743)

Measured: binding

B1: β-subunit of CumDO-O (CumA2) (protein, UniProt Q51744 1-186)
chain: MTSADLTKPIEWPEMPVSLELQNAVEQFYYREAQLLDYQNYEAWLALLTQDIQYWMPIRTTHTSRNKAMEYVPPGGNAHFDETYESMRARIRARVSGLNWTEDPPSRSRHIVSNVIVRETESAGTLEVSSAFLCYRNRLERMTDIYVGERRDILLRVSDGLGFKIAKRTILLDQSTITANNLSQFF
binds: all assays above

B2: β-subunit of CumDO-O (CumA2) R65A (protein, UniProt Q51744 1-186)
chain: B1 chain with R65A
binds: [14]

B3: β-subunit of CumDO-O (CumA2) L98A (protein, UniProt Q51744 1-186)
chain: B1 chain with L98A
binds: [14]

B4: β-subunit of CumDO-O (CumA2) W100A (protein, UniProt Q51744 1-186)
chain: B1 chain with W100A
binds: [14]
